Literature values, collected in patent US6191103A, “Methods for enhancing thrombolysis in a mammal” (priority 1997, dated 2001).
Part of at least one peptide drawing is inferred or uncertain, most often the ends. Where no end group is shown, it is not given here.

Test system: P. falciparum-infected red cells
Settings: Crandall et al. 1993; cited from earlier work

Row | Substance | IC50 values, inhibition of adherence of P. falciparum-infected red cells
1 | HPLQKTY [HPLQKTY] | micromolar range
2 | YVKRVK [7c, YVKRVK] | micromolar range
